Test results as given in patent publication US20220213209A1.
No constants are given. Whether binding was seen depends on the method and setting. Binding can be weak; no strength is given.

Target: macaca Cynomolgus GITR (Macaca cynomolgus)
Assay: BLI OctetRed 96

- binding: binds
B1: BCD166-01-014 (antibody, human IgG1, lambda, V domains shown)
VH: QVQLVQSGGGLVQPGGSLRLSCAASGFTFSYYWMYWVRQAPGKGLEWVSAISWNGGRTYYAESMKGRFTISRDNAQNTLYLQMNSLKSEDTAVYYCAKNRYYSDPNYGMNLWGKGTTVTVSS
VL: QSALTQPASVSGSPGQSITISCTGTSTDIGTYKYISWYQQHPGKAPKLIIYGVSHRPSGVSDRFSGSKSDNTASLTISGLQAEDEADYYCSSYTSSGTVVFGGGTKVTVLG
